Earlier results in US20170319567A1, “Use of CCR3-Inhibitors” (Alkahest, Inc., priority 2013, published 2017).
For at least one compound, name, drawing or mass did not settle the structure.

Test system: Eosinophilic Esophagitis
Settings: swallowed fluticasone iCS, 440 ug bid, EoE

In the case of C[C@@H]1C[C@H]2[C@@H]3C[C@H](F)C4=CC(=O)C=C[C@]4(C)[C@@]3(F)[C@@H](O)C[C@]2(C)[C@@]1(O)C(=O)SCF [fluticasone], the response rates is given as “greater than 50%”.
